Source: patent publication US20240109958A1
Where a chain is given by its changes, count along the chain named. Results are given in words; binding and its absence hold for the method and conditions named. Binding seen in cells or lysates may run through a third protein. Some results given as binding are weak or reduced against the parent protein; the word gives no strength.

T1: internal GGX peptide GGMLTNAR (human)
T1 sequence (peptide): GGMLTNAR

T2: internal GGX peptide GGMoxALALAVTK (human)
T2 sequence (peptide, oxidised methionine (Mox) at position 3): GGMALALAVTK

T3: internal GGX peptide … (human)
T3 sequence (peptide): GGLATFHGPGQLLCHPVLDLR

T4: internal GGX peptide … (human)
T4 sequence (peptide): GGMTSTYGR

B1: anti-GGX monoclonal antibody 2B12 (rabbit IgG) (antibody, V domains shown)
VH: QSVEESGGGLVTPGGALTLTCTASGFSLNRHWMNWVRQAPGKGLEWIGAINESGRTYYATWAKGRFFISKTTTTVDLKITSPTTADTATYFCVRDDDVSNFWGPGTLVTVSS
VL: DPMLTQTPSSVSAAVGGTVSINCQSTKSVYKYNHLSWYQQKPGQPPKQLIFPASTLQSGVPSRFSGSGSGTQFTLTISDVQCDDAATYYCLGLYDCRSGDCNVFGGGTKLEIKG
B2: anti-GGX monoclonal antibody 2E9 (rabbit IgG) (antibody, V domains shown)
VH: QKQLMESGGRLVTPGTPLTLTCKVSGFSLSSYYMNWVRQAPGKGLEWIGIMFPNGKIYYATWAKGRFTISKTSTTVDLKIISPTTEDTATYFCTGDDSGDVNIWGPGTLVTVSS
VL: DIVLTQTASPVSAAVGGTVTINCQSSQSVYTNNRLAWYQQKPGQPAKEMIYGASTLPSGVSSRFKGSGSGTQFALTISDVQCDDAATYYCLGEFDCTSADCFVFGGGTEVVVKG
B3: anti-GGX monoclonal antibody 2H2 (rabbit IgG) (antibody, V domains shown)
VH: QSVEESRGRLVTPGTPLTLTCKVSGFSLSSYYMNWVRQAPGKGLEWIGIMFPNGKIYYATWAKGRFTISKTSTTVDLKIISPTTEDTATYFCTGDDSGDVNIWGPGTLVTVSS
VL: B2 VL with I2P, V3M, T31S, A46P, A74T, E93T, F94Y, T97L, F102L, V103A

Tests used:
[1] = biological target: T1, internal GGX peptide GGMLTNAR (human); experiment: immunoaffinity enrichment from trypsin-digested HEK293 lysate, LC-MS/MS extracted ion chromatograms (FIG. 3D)
[2] = biological target: T2, internal GGX peptide GGMoxALALAVTK (human); experiment: as above
[3] = biological target: T3, internal GGX peptide … (human); experiment: immunoaffinity enrichment from trypsin-digested HEK293 lysate, LC-MS/MS extracted ion chromatograms (FIG. 3E)
[4] = biological target: T4, internal GGX peptide … (human); experiment: as above; remark: listed apart in the source

| Binder | binding [1] | binding [2] | binding [3] | binding [4] |
| --- | --- | --- | --- | --- |
| B1 | binds | binds | – | – |
| B2 | – | – | binds | binds |
| B3 | – | – | binds | binds |
